Experimental data as given in patent US12325646B2, “Fertigation water treatment” (UNIVERSITY OF GUELPH, priority 2019, dated 2025).
Some results were stated once for a whole list of compounds, not compound by compound.

Test: Electrochemical treatment of chemical standards in batch cell (DSA or BDD anodes)
Type: physicochemical
Conditions: DSA electrodes, 2.27 mA/cm^2, 6-minute contact time, LC-MS/MS
Description: Initial water treatment was performed by treating the solution by batch cell using the DSA and BDD anodes, as well as stainless steel (SS) cathodes. The experiment used a 2 L beaker and filled the beaker with 1.8 L of deionized water and dissolved the chemical standards glyphosate (45521, Sigma-Aldrich, USA) or paclobutrazol (46046, Sigma-Aldrich, USA) for separate treatments. The solution was constantly mixed using a magnetic stirrer (220T, Fisher Scientific, Canada) and bar during treatment with chemical standards. Samples containing glyphosate and paclobutrazol standards were submitted to the Agriculture and Food Laboratory (University of Guelph) to quantify samples using LC-MS/MS. The mean quantifiable limit for the analytical method was 8 μg/L for glyphosate, AMPA, and paclobutrazol. The non-purgeable organic carbon (NPOC) and total nitrogen (TN) of the solution were determined using a Shimadzu TOC-Vpn & TNM-1 analyzer. A calibration curve (R^2=0.99) was produced before performing the sample analysis using TOC and TN standards.
The degradation of both glyphosate (8.5 mg/L) and paclobutrazol (12 mg/L) was conducted with the use of electrochemical systems for a direct comparison on their efficacies in a batch cell configuration. […]

## NCP(=O)(O)O [AMPA, aminomethylphosphonic acid]
  level remaining in solution after treatment (below detection limit): < 8 ng/mL
